Counter-ions that a name gives are not always drawn. This continues a long series; more values of the same kind are listed elsewhere.
Assays:
Assay type in all cases: physicochemical
[1] = Polymorph screening test, suspension method (crystal form by XRPD after stirring in solvent); settings: suspension method, 3 days
Protocol: (or 50° C.) for 3 days in the dark and centrifuged to remove the supernatant; the resulting precipitate was dried under vacuum (25° C., −0.1 MPa); and the resulting solid was collected and subjected to the XRPD test. The results are as follows:
(or 50° C./80° C.) for 3 days in the dark and centrifuged to remove the supernatant; and the resulting precipitate was dried under vacuum (25° C., −0.1 MPa).
(or 50° C.) for 3 days in the dark and centrifuged to remove the supernatant; and the resulting precipitate was dried under vacuum (25° C., −0.1 MPa).

[2] = Polymorph screening test, poor solvent / anti-solvent method (crystal form by XRPD); settings: anti-solvent method, stirred 5 days
Source text: (§1) The results are as follows:

[3] = Polymorph screening test, volatilization method (crystal form by XRPD); settings: slow volatilization at room temperature
Source text: as §1
A total of 15 slow volatilization tests were set up using different solvent systems. […] The resulting solid was collected and subjected to the XRPD test.
A total of 10 slow volatilization tests were set up using different solvent systems. […] The resulting solid was collected and subjected to the XRPD test.
A total of 3 slow volatilization tests were set up using different solvent systems. […] The resulting solid was collected and subjected to the XRPD test.

[4] = good solvent DMSO, poor solvent Water
[5] = good solvent DMSO, poor solvent n-Heptane

Cc1cc(Nc2ncc(Cl)c(Nc3ccccc3S(=O)(=O)C(C)C)n2)c(OC(C)C)cc1C1=CCN(C2CCOCC2)CC1 [one equivalent of citrate crystal form B]
Crystal form (XRPD) ([1]; 1,4-Dioxane, 40° C.): Crystal form B
Crystal form (XRPD) ([1]; Acetone/water (1:2), 40° C.): Crystal form B
Crystal form (XRPD) ([1]; Acetone, 40° C.): Crystal form B
Crystal form (XRPD) ([1]; Acetonitrile/water (1:1), 40° C.): Crystal form B
Crystal form (XRPD) ([1]; Acetonitrile, 40° C.): Crystal form B
Crystal form (XRPD) ([1]; Dichloromethane, 40° C.): Crystal form B
Crystal form (XRPD) ([1]; Ethanol, 40° C.): Crystal form B
Crystal form (XRPD) ([1]; Ethyl acetate, 40° C.): Crystal form B
Crystal form (XRPD) ([1]; Methanol/water (3:1), 40° C.): Crystal form B
Crystal form (XRPD) ([1]; Methanol, 40° C.): Crystal form B
Crystal form (XRPD) ([1]; Tetrahydrofuran, 40° C.): Crystal form B
Crystal form (XRPD) ([1]; Water, 40° C.): Crystal form B
Crystal form (XRPD) ([1]; n-Heptane, 40° C.): Crystal form B
Crystal form (XRPD) [2, 4]: Crystal form B
Crystal form (XRPD) [2, 5]: No solid sample was obtained
Crystal form (XRPD) ([3]; DCM): No solid sample was obtained
Crystal form (XRPD) ([3]; DCM/MeOH(1:1, v/v)): Crystal form B
Crystal form (XRPD) ([3]; DCM/acetone (1:1, v/v)): No solid sample was obtained

Cc1cc(Nc2ncc(Cl)c(Nc3ccccc3S(=O)(=O)C(C)C)n2)c(OC(C)C)cc1C1=CCN(C2CCOCC2)CC1 [one equivalent of maleate crystal form A]
Crystal form (XRPD) ([1]; 1,4-Dioxane, 25° C.): Crystal form A
Crystal form (XRPD) ([1]; 1,4-Dioxane, 50° C.): Crystal form A
Crystal form (XRPD) ([1]; 2-Methyltetrahydrofuran, 25° C.): Crystal form A
Crystal form (XRPD) ([1]; 2-Methyltetrahydrofuran, 50° C.): Crystal form A
Crystal form (XRPD) ([1]; Acetone-water 1:1, 25° C.): Crystal form A
Crystal form (XRPD) ([1]; Acetone-water 1:1, 50° C.): Crystal form A
Crystal form (XRPD) ([1]; Acetone, 25° C.): Crystal form A
Crystal form (XRPD) ([1]; Acetone, 50° C.): Crystal form A
Crystal form (XRPD) ([1]; Acetonitrile-water 1:1, 25° C.): Crystal form A
Crystal form (XRPD) ([1]; Acetonitrile-water 1:1, 50° C.): Crystal form A
Crystal form (XRPD) ([1]; Acetonitrile, 25° C.): Crystal form A
Crystal form (XRPD) ([1]; Acetonitrile, 50° C.): Crystal form A
Crystal form (XRPD) ([1]; Cyclohexane, 25° C.): Crystal form A
Crystal form (XRPD) ([1]; Cyclohexane, 50° C.): Crystal form A
Crystal form (XRPD) ([1]; Dichloromethane, 25° C.): Crystal form A
Crystal form (XRPD) ([1]; Dichloromethane, 50° C.): Crystal form A
Crystal form (XRPD) ([1]; Ethanol, 25° C.): Crystal form A
Crystal form (XRPD) ([1]; Ethanol, 50° C.): Crystal form A
Crystal form (XRPD) ([1]; Ethyl acetate, 25° C.): Crystal form A
Crystal form (XRPD) ([1]; Ethyl acetate, 50° C.): Crystal form A
Crystal form (XRPD) ([1]; Isopropanol, 25° C.): Crystal form A
Crystal form (XRPD) ([1]; Isopropanol, 50° C.): Crystal form A
Crystal form (XRPD) ([1]; Isopropyl acetate, 25° C.): Crystal form A
Crystal form (XRPD) ([1]; Isopropyl acetate, 50° C.): Crystal form A
Crystal form (XRPD) ([1]; Methanol-water 1:1, 25° C.): Crystal form A
Crystal form (XRPD) ([1]; Methanol-water 1:1, 50° C.): Crystal form A
Crystal form (XRPD) ([1]; Methanol, 25° C.): Crystal form A
Crystal form (XRPD) ([1]; Methanol, 50° C.): Crystal forms A + B
Crystal form (XRPD) ([1]; Methyl acetate, 25° C.): Crystal form A
Crystal form (XRPD) ([1]; Methyl acetate, 50° C.): Crystal form A
Crystal form (XRPD) ([1]; Methyl ethyl ketone, 25° C.): Crystal form A
Crystal form (XRPD) ([1]; Methyl ethyl ketone, 50° C.): Crystal form A
Crystal form (XRPD) ([1]; Methyl isobutyl ketone, 25° C.): Crystal form A
Crystal form (XRPD) ([1]; Methyl isobutyl ketone, 50° C.): Crystal form A
Crystal form (XRPD) ([1]; Methyl tert-butyl ether, 25° C.): Crystal form A
Crystal form (XRPD) ([1]; Methyl tert-butyl ether, 50° C.): Crystal form A
Crystal form (XRPD) ([1]; Tetrahydrofuran, 25° C.): Crystal form A
Crystal form (XRPD) ([1]; Tetrahydrofuran, 50° C.): Crystal form A
Crystal form (XRPD) ([1]; Toluene, 25° C.): Crystal form A
Crystal form (XRPD) ([1]; Toluene, 50° C.): Crystal form A
Crystal form (XRPD) ([1]; Water, 25° C.): Crystal form A
Crystal form (XRPD) ([1]; Water, 50° C.): Crystal form A
Crystal form (XRPD) ([1]; n-Heptane, 25° C.): Crystal form A
Crystal form (XRPD) ([1]; n-Heptane, 50° C.): Crystal form A
Crystal form (XRPD) ([1]; n-Hexane, 25° C.): Crystal form A
Crystal form (XRPD) ([1]; n-Hexane, 50° C.): Crystal form A
Crystal form (XRPD) ([2]; good solvent DCM, poor solvent ACN): Crystal form A
Crystal form (XRPD) ([2]; good solvent DCM, poor solvent Acetone): Crystal form B
Crystal form (XRPD) ([2]; good solvent DCM, poor solvent Dioxane): Crystal form B
Crystal form (XRPD) ([2]; good solvent DCM, poor solvent EA): Crystal form B
Crystal form (XRPD) ([2]; good solvent DCM, poor solvent MTBE): Crystal form B
Crystal form (XRPD) ([2]; good solvent DCM, poor solvent MeOH): No solid sample was obtained
Crystal form (XRPD) ([2]; good solvent DCM, poor solvent Water): No solid sample was obtained
Crystal form (XRPD) ([2]; good solvent DCM, poor solvent n-Heptane): Crystal forms A + B
Crystal form (XRPD) ([2]; good solvent DMF, poor solvent Dioxane): No solid sample was obtained
Crystal form (XRPD) ([2]; good solvent DMF, poor solvent MTBE): Crystal form B
Crystal form (XRPD) ([2]; good solvent DMF, poor solvent Water): Crystal form A
Crystal form (XRPD) ([2]; good solvent DMF, poor solvent n-Heptane): No solid sample was obtained
Crystal form (XRPD) ([2]; good solvent DMSO, poor solvent Dioxane): No solid sample was obtained
Crystal form (XRPD) ([2]; good solvent DMSO, poor solvent MTBE): No solid sample was obtained
Crystal form (XRPD) [2, 4]: Crystal form A
Crystal form (XRPD) [2, 5]: No solid sample was obtained
Crystal form (XRPD) ([2]; good solvent NMP, poor solvent Dioxane): No solid sample was obtained
Crystal form (XRPD) ([2]; good solvent NMP, poor solvent MTBE): Crystal form A
Crystal form (XRPD) ([2]; good solvent NMP, poor solvent Water): Crystal form B
Crystal form (XRPD) ([2]; good solvent NMP, poor solvent n-Heptane): No solid sample was obtained
Crystal form (XRPD) ([3]; ACN/DCM (5:7, v/v)): Crystal form A
Crystal form (XRPD) ([3]; Acetone/DCM (5:10, v/v)): Crystal form A
Crystal form (XRPD) ([3]; DCM): Crystal form A
Crystal form (XRPD) ([3]; Dioxane/DCM (5:10, v/v)): Crystal form A
Crystal form (XRPD) ([3]; EA/DCM (5:10, v/v)): Crystal form A
Crystal form (XRPD) ([3]; EtOH/DCM (3:3, v/v)): Crystal forms A + B
Crystal form (XRPD) ([3]; IPA/DCM (4:4, v/v)): Crystal forms A + B
Crystal form (XRPD) ([3]; IPAc/DCM (5:10, v/v)): Crystal form A
Crystal form (XRPD) ([3]; MeOH/DCM (3:2, v/v)): Crystal form A
Crystal form (XRPD) ([3]; THF/DCM (5:10, v/v)): Crystal form A

— patent publication US20260217692A1 (Ascentage Pharma (Suzhou) Co., Ltd., priority 2023, published 2026)
